# Reference: US4804664A, “Method and pharmaceutical preparation for treating chronic obstructive airway disease and cardiac disease, and intermediates for the preparation of therapeutically active xanthine derivatives” (priority 1978, dated 1989)
# Tested on: Guinea-Pig Trachea
# Assay: Relation between therapeutic ratios (bronchodilator dose : toxic dose) for theophylline and each compound
# Details: theophylline = 1; ( ) denotes onesided 95% confidence interval
row,Compound,"relation between therapeutic ratios for theophylline and each compound, onesided 95% confidence bound"
1,"CCCn1c(=O)[nH]c(=O)c2[nH]cnc21 [D 4028, 3,7-dihydro-3-propyl-1H-purine-2,6-dione]",≥ 2.1
2,"CC(C)Cn1c(=O)[nH]c(=O)c2[nH]cnc21 [D 4030, 3,7-dihydro-3-(2-methylpropyl)-1H-purine-2,6-dione]",≥ 1.3
3,"CCCCn1c(=O)[nH]c(=O)c2[nH]cnc21 [D 4031, 3-butyl-3,7-dihydro-1H-purine-2,6-dione]",≥ 1.5
